Results are given in words; binding and its absence hold for the method and conditions named. Binding seen in cells or lysates may run through a third protein. These calls come from enrichment with a bait or labelling near it, and not all partners need be listed. For some assays here: Where a sequence is shown, tags or fusion partners need not be part of it.
T1: FLAG-hnRNP F (UniProt P52597)
T1 sequence: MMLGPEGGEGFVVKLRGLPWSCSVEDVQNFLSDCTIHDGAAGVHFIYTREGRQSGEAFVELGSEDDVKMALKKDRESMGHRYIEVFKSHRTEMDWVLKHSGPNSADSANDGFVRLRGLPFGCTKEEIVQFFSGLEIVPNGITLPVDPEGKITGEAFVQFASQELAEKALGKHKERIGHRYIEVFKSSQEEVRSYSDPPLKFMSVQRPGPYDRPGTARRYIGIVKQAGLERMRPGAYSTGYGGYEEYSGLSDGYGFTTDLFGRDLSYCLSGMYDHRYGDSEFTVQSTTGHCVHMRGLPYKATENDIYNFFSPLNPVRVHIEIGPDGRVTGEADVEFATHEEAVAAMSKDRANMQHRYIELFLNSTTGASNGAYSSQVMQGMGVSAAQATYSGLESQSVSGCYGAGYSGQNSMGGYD

By UniProt entry, the sequences of proteins in these tests, tags left out.
UniProt P31943: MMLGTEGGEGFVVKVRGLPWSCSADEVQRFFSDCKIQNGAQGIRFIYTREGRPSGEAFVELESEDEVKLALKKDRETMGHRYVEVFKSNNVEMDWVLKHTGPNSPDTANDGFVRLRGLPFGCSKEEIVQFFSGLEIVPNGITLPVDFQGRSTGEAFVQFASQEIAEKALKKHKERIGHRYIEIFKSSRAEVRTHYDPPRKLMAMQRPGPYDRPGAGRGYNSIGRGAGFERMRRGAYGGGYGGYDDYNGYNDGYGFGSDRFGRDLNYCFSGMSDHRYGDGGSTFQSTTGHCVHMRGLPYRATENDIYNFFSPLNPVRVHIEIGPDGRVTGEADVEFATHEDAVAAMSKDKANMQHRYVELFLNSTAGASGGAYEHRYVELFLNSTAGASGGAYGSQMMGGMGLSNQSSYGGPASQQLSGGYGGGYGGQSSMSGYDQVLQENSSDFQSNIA
UniProt Q86US8: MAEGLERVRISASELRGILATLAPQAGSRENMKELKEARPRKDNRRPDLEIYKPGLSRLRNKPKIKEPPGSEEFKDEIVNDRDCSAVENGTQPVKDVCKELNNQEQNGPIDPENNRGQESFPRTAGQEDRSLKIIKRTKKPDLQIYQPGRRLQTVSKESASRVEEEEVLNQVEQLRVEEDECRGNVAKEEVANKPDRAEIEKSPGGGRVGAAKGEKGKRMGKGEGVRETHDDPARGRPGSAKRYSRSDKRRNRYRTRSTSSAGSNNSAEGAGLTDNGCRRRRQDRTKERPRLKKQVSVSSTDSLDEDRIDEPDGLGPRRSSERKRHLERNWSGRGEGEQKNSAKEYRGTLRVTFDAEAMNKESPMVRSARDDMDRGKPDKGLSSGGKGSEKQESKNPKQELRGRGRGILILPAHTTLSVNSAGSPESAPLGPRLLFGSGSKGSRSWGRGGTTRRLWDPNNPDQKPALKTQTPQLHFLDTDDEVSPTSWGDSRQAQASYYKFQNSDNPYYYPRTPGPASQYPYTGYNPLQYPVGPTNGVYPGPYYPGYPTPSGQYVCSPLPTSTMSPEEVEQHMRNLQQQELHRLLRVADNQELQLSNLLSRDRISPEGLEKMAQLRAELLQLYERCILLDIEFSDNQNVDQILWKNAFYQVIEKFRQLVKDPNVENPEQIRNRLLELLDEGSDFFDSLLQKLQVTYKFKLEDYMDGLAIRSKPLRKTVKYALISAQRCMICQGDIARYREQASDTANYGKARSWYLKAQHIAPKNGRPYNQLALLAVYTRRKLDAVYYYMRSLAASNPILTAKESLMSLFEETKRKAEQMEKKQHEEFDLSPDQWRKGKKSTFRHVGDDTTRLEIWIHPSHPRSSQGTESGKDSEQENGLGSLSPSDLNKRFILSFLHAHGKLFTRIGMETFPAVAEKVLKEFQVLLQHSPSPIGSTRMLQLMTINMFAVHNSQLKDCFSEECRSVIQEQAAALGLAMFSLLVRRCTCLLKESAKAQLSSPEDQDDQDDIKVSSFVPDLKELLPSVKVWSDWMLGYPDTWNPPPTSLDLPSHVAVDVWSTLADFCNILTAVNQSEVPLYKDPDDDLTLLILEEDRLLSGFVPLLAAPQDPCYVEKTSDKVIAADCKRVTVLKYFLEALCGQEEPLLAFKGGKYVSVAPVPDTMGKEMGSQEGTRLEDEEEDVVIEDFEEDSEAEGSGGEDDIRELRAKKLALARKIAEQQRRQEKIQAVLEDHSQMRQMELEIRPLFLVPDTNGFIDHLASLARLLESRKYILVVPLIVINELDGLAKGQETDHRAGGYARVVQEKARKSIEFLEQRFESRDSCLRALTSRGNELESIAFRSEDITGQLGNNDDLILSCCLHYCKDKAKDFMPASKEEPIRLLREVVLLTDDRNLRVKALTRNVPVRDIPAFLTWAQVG


Legend:
FLAG-hnRNP F = molecular target: T1, FLAG-hnRNP F; assay: affinity purification with mass spectrometry; FLAG-hnRNP F or H1 ectopically expressed in HeLa cells, immunoprecipitated by FLAG antibody; immunoprecipitates separated by SDS-PAGE, silver-stained, bands analysed by mass spectrometry
FLAG-hnRNP H1 = FLAG-hnRNP H1 (UniProt P31943); assay: as above

Molecule | binding (FLAG-hnRNP F) | binding (FLAG-hnRNP H1)
EST1A (from UniProt Q86US8 1-1419) | binds | 
DKC1 (protein, UniProt O60832 1-514) MADAEVIILPKKHKKKKERKSLPEEDVAEIQHAEEFLIKPESKVAKLDTSQWPLLLKNFDKLNVRTTHYTPLACGSNPLKREIGDYIRTGFINLDKPSNPSSHEVVAWIRRILRVEKTGHSGTLDPKVTGCLIVCIERATRLVKSQQSAGKEYVGIVRLHNAIEGGTQLSRALETLTGALFQRPPLIAAVKRQLRVRTIYESKMIEYDPERRLGIFWVSCEAGTYIRTLCVHLGLLLGVGGQMQELRRVRSGVMSEKDHMVTMHDVLDAQWLYDNHKDESYLRRVVYPLEKLLTSHKRLVMKDSAVNAICYGAKIMLPGVLRYEDGIEVNQEIVVITTKGEAICMAIALMTTAVISTCDHGIVAKIKRVIMERDTYPRKWGLGPKASQKKLMIKQGLLDKHGKPTDSTPATWKQEYVDYSESAKKEVVAEVVKAPQVVAEAAKTAKRKRESESESDETPPAAPQLIKKEKKKSKKDKKAKAGLESGAEPGDGDSDTTKKKKKKKKAKEVELVSE | binds | binds
NOP10 (protein, UniProt Q9NPE3 1-64) MFLQYYLNEQGDRVYTLKKFDPMGQQTCSAHPARFSPDDKYSRHRITIKKRFKVLMTQQPRPVL | binds | binds

Other lines, results leading:

binding (FLAG-hnRNP F) | binding (FLAG-hnRNP H1) | Molecule
binds |  | GAR1 (protein, UniProt Q9NY12 1-217) MSFRGGGRGGFNRGGGGGGFNRGGSSNHFRGGGGGGGGGNFRGGGRGGFGRGGGRGGFNKGQDQGPPERVVLLGEFLHPCEDDIVCKCTTDENKVPYFNAPVYLENKEQIGKVDEIFGQLRDFYFSVKLSENMKASSFKKLQKFYIDPYKLLPLQRFLPRPPGEKGPPRGGGRGGRGGGRGGGGRGGGRGGGFRGGRGGGGGGFRGGRGGGFRGRGH
binds | binds | NHP2 (protein, UniProt Q9NX24 1-153) MTKIKADPDGPEAQAEACSGERTYQELLVNQNPIAQPLASRRLTRKLYKCIKKAVKQKQIRRGVKEVQKFVNKGEKGIMVLAGDTLPIEVYCHLPVMCEDRNLPYVYIPSKTDLGAAAGSKRPTCVIMVKPHEEYQEAYDECLEEVQSLPLPL

— PMC7244589
